The target of the test is Prmt1 (endogenous, mouse hippocampus) (mouse (endogenous in hippocampus)) (UniProt Q9JIF0). Description: co-IP; lysates from mouse hippocampus immunoprecipitated with anti-Prmt1 antibody, immunoblotted with anti-KCNQ2 or anti-Prmt1 antibody. In general terms: Immunoblotting shows a protein as a band on a membrane.

Protein sequences, listed by entry. Tags and fused reporters are not part of them.
UniProt Q9JIF0: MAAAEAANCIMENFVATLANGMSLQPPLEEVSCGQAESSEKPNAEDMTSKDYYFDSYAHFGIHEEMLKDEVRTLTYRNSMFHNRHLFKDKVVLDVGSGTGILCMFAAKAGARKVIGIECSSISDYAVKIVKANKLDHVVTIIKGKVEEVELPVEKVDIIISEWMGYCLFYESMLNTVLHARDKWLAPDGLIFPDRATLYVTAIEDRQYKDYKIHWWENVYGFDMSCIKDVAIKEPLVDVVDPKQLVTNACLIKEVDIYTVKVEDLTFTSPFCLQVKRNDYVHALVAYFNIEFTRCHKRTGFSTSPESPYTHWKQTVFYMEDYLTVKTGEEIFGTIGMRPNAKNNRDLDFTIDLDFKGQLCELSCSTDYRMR
UniProt Q9Z351: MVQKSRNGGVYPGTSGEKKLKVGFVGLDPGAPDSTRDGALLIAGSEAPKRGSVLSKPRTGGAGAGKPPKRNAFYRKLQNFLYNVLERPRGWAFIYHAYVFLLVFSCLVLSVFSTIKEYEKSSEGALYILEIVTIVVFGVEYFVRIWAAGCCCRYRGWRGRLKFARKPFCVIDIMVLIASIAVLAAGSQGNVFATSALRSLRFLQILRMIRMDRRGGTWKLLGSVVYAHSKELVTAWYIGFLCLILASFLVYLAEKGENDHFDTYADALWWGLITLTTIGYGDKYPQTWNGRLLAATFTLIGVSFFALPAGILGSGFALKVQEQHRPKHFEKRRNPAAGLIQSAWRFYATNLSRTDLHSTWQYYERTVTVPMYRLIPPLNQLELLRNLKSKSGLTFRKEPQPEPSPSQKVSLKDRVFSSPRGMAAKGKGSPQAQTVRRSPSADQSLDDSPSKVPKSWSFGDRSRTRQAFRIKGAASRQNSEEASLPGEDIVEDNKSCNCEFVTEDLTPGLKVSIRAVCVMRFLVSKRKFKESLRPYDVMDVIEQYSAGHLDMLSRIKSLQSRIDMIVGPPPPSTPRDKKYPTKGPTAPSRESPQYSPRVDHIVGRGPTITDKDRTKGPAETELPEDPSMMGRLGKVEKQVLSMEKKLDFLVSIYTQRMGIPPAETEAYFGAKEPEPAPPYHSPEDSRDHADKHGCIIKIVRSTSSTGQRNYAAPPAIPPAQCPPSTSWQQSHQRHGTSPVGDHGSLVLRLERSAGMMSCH

No constants are given. Whether binding was seen depends on the method and setting. Binding seen in cells or lysates may run through a third protein. Some binding calls cover weakened binding; strength is not graded here.

Take “KCNQ2 (endogenous, mouse hippocampus) (from UniProt Q9Z351 1-759)”: the binding result is on record as “binds”.

Values taken from PMC4996652.
